# Source: publication PMC6949099
# No constants are given. Whether binding was seen depends on the method and setting. Binding seen in cells or lysates may run through a third protein. Some binding calls cover weakened binding; strength is not graded here.
# T1: Klotho (mouse (endogenous in C57/6J cartilage and in mouse chondrocytes)) (UniProt O35082)
# T1 sequence: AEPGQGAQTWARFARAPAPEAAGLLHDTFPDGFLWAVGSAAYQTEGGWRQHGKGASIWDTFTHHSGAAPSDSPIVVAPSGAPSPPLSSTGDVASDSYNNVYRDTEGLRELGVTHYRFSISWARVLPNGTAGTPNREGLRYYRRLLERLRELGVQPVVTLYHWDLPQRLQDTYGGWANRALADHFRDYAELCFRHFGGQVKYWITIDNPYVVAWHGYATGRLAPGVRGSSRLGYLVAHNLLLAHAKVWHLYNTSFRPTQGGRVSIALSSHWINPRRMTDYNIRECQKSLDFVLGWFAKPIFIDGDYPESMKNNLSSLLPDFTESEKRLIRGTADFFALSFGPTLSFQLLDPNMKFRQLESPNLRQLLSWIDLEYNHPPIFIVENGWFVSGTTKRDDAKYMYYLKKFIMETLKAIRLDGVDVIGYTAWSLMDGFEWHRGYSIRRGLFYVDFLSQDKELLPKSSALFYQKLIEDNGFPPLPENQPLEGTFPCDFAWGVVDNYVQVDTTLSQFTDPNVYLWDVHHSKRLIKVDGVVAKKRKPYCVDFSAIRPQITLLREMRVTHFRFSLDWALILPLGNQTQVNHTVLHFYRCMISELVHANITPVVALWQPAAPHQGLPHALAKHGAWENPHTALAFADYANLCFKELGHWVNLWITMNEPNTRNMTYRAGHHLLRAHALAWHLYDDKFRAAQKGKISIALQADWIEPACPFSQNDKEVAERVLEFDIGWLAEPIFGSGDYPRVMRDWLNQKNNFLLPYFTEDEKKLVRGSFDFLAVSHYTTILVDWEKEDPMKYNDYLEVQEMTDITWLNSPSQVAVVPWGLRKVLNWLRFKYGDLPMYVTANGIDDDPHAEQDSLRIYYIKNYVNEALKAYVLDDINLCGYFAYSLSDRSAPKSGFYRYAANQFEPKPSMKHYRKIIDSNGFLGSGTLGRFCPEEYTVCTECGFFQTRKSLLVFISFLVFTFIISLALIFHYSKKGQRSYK
# T2: Klotho (over-expressed from a lentiviral vector) (UniProt O35082)
# T2 sequence: T1 sequence
# B1: Wnt1 (ligand, UniProt P04426 28-370)
# chain: ANSSGRWWGIVNIASSTNLLTDSKSLQLVLEPSLQLLSRKQRRLIRQNPGILHSVSGGLQSAVRECKWQFRNRRWNCPTAPGPHLFGKIVNRGCRETAFIFAITSAGVTHSVARSCSEGSIESCTCDYRRRGPGGPDWHWGGCSDNIDFGRLFGREFVDSGEKGRDLRFLMNLHNNEAGRTTVFSEMRQECKCHGMSGSCTVRTCWMRLPTLRAVGDVLRDRFDGASRVLYGNRGSNRASRAELLRLEPEDPAHKPPSPHDLVYFEKSPNFCTYSGRLGTAGTAGRACNSSSPALDGCELLCCGRGHRTRTQRVTERCNCTFHWCCHVSCRNCTHTRVLHECL
# B2: Wnt7a (ligand, UniProt P24383 32-349)
# chain: LGASIICNKIPGLAPRQRAICQSRPDAIIVIGEGSQMGLDECQFQFRNGRWNCSALGERTVFGKELKVGSREAAFTYAIIAAGVAHAITAACTQGNLSDCGCDKEKQGQYHRDEGWKWGGCSADIRYGIGFAKVFVDAREIKQNARTLMNLHNNEAGRKILEENMKLECKCHGVSGSCTTKTCWTTLPQFRELGYVLKDKYNEAVHVEPVRASRNKRPTFLKIKKPLSYRKPMDTDLVYIEKSPNYCEEDPVTGSVGTQGRACNKTAPQASGCDLMCCGRGYNTHQYARVWQCNCKFHWCCYVKCNTCSERTEMYTCK
# B3: Wnt4 (ligand, UniProt P22724 23-351)
# chain: SNWLYLAKLSSVGSISEEETCEKLKGLIQRQVQMCKRNLEVMDSVRRGAQLAIEECQYQFRNRRWNCSTLDSLPVFGKVVTQGTREAAFVYAISSAGVAFAVTRACSSGELEKCGCDRTVHGVSPQGFQWSGCSDNIAYGVAFSQSFVDVRERSKGASSSRALMNLHNNEAGRKAILTHMRVECKCHGVSGSCEVKTCWRAVPPFRQVGHALKEKFDGATEVEPRRVGSSRALVPRNAQFKPHTDEDLVYLEPSPDFCEQDIRSGVLGTRGRTCNKTSKAIDGCELLCCGRGFHTAQVELAERCGCRFHWCCFVKCRQCQRLVEMHTCR
# Biological target: T1, Klotho (mouse (endogenous in C57/6J cartilage and in mouse chondrocytes))
# Assay: co-IP; mouse chondrocytes (cells), with or without cyclic tensile strain (0.1, 0.5, 1 Hz, 48 h), with Klotho over-expression, empty vector or β-catenin knock-down
row,binding,Binder
1,binds,B1
2,binds,B2
3,binds,B3

# Biological target: T2, Klotho (over-expressed from a lentiviral vector)
# Assay: as above
row,binding,Binder
1,binds,B1
2,binds,B2
3,binds,B3

# Biological target: T1, Klotho (mouse (endogenous in C57/6J cartilage and in mouse chondrocytes))
# Assay: co-IP; supernatant of mouse chondrocytes, with or without cyclic tensile strain (0.1, 0.5, 1 Hz, 48 h), with Klotho over-expression, empty vector or β-catenin knock-down
row,binding,Binder
1,binds,B1
2,binds,B2
3,binds,B3

# Biological target: T2, Klotho (over-expressed from a lentiviral vector)
# Assay: as above
row,binding,Binder
1,binds,B1
2,binds,B2
3,binds,B3

# Biological target: T1, Klotho (mouse (endogenous in C57/6J cartilage and in mouse chondrocytes))
# Assay: co-IP; cartilage tissue of sham-operated and ACLT (OA) mice homogenised in lysis buffer (30 mM Tris-HCl, 150 mM NaCl, 1% Triton X-100, 2 mM EDTA, 10% glycerol); 2 ug antibody against Klotho, 4 h at 4 °C, Protein A/G beads; Western blot of Wnt1, 4 and 7a; the precipitating antibody for Dvl and Frizzled is not told
row,binding,Binder
1,binds,B1
2,binds,B2
3,binds,B3
